Data as given in PubChem BioAssay AID1224830 (NIAID, 2016).
In all, the deposit lists about 18,000 reagents; this is a part drawn at random. About 2,900 of them (16%) were called active. 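Calls are made per well; low scores hint the gene aids the LPS response, high scores that it dampens it.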 Reagents against one gene are numbered here. Repeated entries: four replicate wells of each siRNA pool.

Test: 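Genes whose knock-down alters the TNF-alpha reporter response to LPS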 (primary screen)
System: human THP-1 monocytic leukaemia cells, TNF dual-luciferase reporter clone, PMA-differentiated to macrophage-like cells
Knock-down reagent: siRNA pool against human genes, 50 nM
Timing: LPS for 4 h, given about 3 days after siRNA transfection
Conditions: bacterial LPS (TLR4 ligand), 10 ng/ml
Detection: 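TNF firefly reporter luminescence divided by renilla, normalised to the plate median, then turned into a robust z-score for each replicate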
Direction: TNF reporter robust z-score: higher = stronger TNF reporter response to LPS
Hit rule: 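a well is active when its z-score exceeds 2.8 or falls below -1.5; control wells carry no call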

gene,pool no.,TNF reporter robust z-score,Outcome
KIT,1,-1.58,active
KIT,1,0.77,inactive
KIT,1,-0.43,inactive
KIT,1,-0.09,inactive
FOXD4L3,1,-0.42,inactive
FOXD4L3,1,0.53,inactive
FOXD4L3,1,-0.29,inactive
FOXD4L3,2,2.15,inactive
FOXD4L3,2,0.45,inactive
FOXD4L3,2,-0.11,inactive
FOXD4L3,2,-0.1,inactive
AKTIP,1,-0.21,inactive
AKTIP,1,0.12,inactive
AKTIP,1,0.47,inactive
AKTIP,1,0.35,inactive
HUNK,1,-1.14,inactive
HUNK,1,0.29,inactive
HUNK,1,-1.35,inactive
HUNK,1,-0.87,inactive
HES4,1,-0.36,inactive
HES4,1,0.13,inactive
HES4,1,0.15,inactive
HES4,1,0.1,inactive
UGT1A7,1,-0.25,inactive
UGT1A7,1,-0.12,inactive
UGT1A7,1,0.08,inactive
UGT1A7,1,-0.43,inactive
CYLC2,1,0.66,inactive
CYLC2,1,0.44,inactive
CYLC2,1,0.01,inactive
CYLC2,1,0.89,inactive
ENPP5,1,-0.27,inactive
ENPP5,1,1.68,inactive
ENPP5,1,-0.64,inactive
MPHOSPH8,1,-0.08,inactive
MPHOSPH8,1,0.22,inactive
MPHOSPH8,1,0.1,inactive
MPHOSPH8,1,0.17,inactive
STKLD1,1,0.14,inactive
STKLD1,1,-0.98,inactive
STKLD1,1,1.14,inactive
STKLD1,1,0.61,inactive
MYO7A,1,-0.74,inactive
MYO7A,1,-0.3,inactive
MYO7A,1,-0.76,inactive
MYO7A,1,-0.57,inactive
SART1,1,-0.96,inactive
SART1,1,-0.5,inactive
SART1,1,-0.45,inactive
SART1,1,-0.24,inactive
BIVM,1,1.3,inactive
BIVM,1,1.5,inactive
BIVM,1,1.01,inactive
BIVM,1,0.85,inactive
FAM76B,1,-1.08,inactive
FAM76B,1,-1.45,inactive
FAM76B,1,-1.31,inactive
FAM76B,1,-0.84,inactive
TMPRSS11D,1,-1.71,active
TMPRSS11D,1,-1.26,inactive
TMPRSS11D,1,-1.74,active
TMPRSS11D,1,-0.71,inactive
ART1,1,2.62,inactive
ART1,1,3.01,active
ART1,1,2.88,active
ART1,1,2.17,inactive
CEP135,1,1.18,inactive
CEP135,1,4.86,active
CEP135,1,5.04,active
CEP135,1,0.93,inactive
RBM38,1,1.25,inactive
RBM38,1,-0.6,inactive
RBM38,1,-1.08,inactive
RBM38,1,-0.12,inactive
DGKD,1,0.45,inactive
DGKD,1,1.61,inactive
DGKD,1,1.38,inactive
DGKD,1,0.63,inactive

9 of these entries in another layout.
gene	pool no.	TNF reporter robust z-score	Outcome
CEP135	1	0.93	inactive
RBM38	1	1.25	inactive
RBM38	1	-0.6	inactive
RBM38	1	-1.08	inactive
RBM38	1	-0.12	inactive
DGKD	1	0.45	inactive
DGKD	1	1.61	inactive
DGKD	1	1.38	inactive
DGKD	1	0.63	inactive
